Source: patent US20090130123A1
Where a chain is given by its changes, count along the chain named. No constants are given. Whether binding was seen depends on the method and setting. Some results given as binding are weak or reduced against the parent protein; the word gives no strength.

By UniProt entry, the sequences of proteins in these tests, tags left out. Residues count along the entry.
WNV E protein ectodomain displayed on yeast (Q9Q6P4, residues 291-705): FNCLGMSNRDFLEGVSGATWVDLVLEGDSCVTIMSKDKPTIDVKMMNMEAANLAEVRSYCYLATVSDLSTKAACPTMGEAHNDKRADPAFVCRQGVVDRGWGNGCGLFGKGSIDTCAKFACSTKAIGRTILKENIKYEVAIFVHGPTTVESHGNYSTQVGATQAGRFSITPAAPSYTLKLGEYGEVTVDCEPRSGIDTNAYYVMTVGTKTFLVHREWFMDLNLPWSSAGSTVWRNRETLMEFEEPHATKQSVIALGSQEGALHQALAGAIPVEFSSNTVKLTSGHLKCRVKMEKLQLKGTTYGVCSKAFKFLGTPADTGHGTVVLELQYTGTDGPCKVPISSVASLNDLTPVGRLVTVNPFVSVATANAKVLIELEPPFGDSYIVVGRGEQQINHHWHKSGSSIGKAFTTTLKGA
Recombinant WNV-E protein ectodomain (Q9Q6P4, residues 291-700): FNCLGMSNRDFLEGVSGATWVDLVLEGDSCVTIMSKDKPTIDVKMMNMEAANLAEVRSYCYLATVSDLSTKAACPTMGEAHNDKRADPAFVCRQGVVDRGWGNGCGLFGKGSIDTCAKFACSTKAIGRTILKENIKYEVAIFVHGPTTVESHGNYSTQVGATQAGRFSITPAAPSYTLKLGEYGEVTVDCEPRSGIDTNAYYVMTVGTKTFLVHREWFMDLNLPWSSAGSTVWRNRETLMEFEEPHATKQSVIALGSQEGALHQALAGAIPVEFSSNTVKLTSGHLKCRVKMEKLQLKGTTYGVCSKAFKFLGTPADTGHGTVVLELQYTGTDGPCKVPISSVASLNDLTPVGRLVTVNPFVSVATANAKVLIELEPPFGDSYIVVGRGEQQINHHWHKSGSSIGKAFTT
WNV E protein DI/DII displayed on yeast (Q9Q6P4, residues 291-586): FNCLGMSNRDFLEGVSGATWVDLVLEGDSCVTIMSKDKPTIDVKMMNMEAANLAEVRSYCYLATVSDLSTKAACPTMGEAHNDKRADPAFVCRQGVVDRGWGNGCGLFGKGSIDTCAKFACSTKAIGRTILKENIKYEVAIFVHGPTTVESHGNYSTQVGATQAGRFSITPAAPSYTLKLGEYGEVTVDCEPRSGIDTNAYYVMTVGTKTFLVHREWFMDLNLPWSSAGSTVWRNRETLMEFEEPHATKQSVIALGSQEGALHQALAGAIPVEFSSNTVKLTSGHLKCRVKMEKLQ

B1: scFv 10 (scFv, not shown: small tags and cut ends)
scFv: MAQVQLVQSGAEVKKPGSSVKVSCKASGYTFSGYSTHWLRQVPGQGLEWIGWDNPSSGDTTYAENFRGRVTLTRDTSITTDYLEVRGLRSDDTAVYYCARGGDDYSFDHWGQGTLVTVSSSGGGSGGGGSGGGGSQTVVTQEPSFSVSPGGTITLTCGLSSGSVFTSYYPSWYQQTPGQAPRTLIYSTNTRSSGVPDRFSGSILGNKAALTITGAQADDESDYYCVLYMGSGIGVFGTGTKVTVLGQPKAAPSAAAEQKLISEEDL
B2: scFv 85 (scFv, not shown: small tags and cut ends)
scFv: MAQVQLVQSGAEVKKPGASVKVSCKASGYTFSGYSTHWLRQVPGQGLEWIGWDNPSSGDTTYAENFRGRVTLTRDTSITTDYLEVRGLRSDDTAVYYCARGGDDYSFDHWGQGTLVTVSSGGGGSGGGGSGGGGSSSELTQDPAVSVALGQTVTITCQGGGLRNYYASWYQQKPGQAPVLLVYGRDNRPSGIPDRFSGSSSGNTASLTITGAQAEDEADYYCNSRDSSGNHLVFGGGTKLTVLGQPKATPSAAAEQKLISEEDL
B3: 10 (Fc fusion)
scFv-Fc chain: QVQLVQSGAEVKKPGSSVKVSCKASGYTFSGYSTHWLRQVPGQGLEWIGWDNPSSGDTTYAENFRGRVTLTRDTSITTDYLEVRGLRSDDTAVYYCARGGDDYSFDHWGQGTLVTVSSSGGGSGGGGSGGGGSQTVVTQEPSFSVSPGGTITLTCGLSSGSVFTSYYPSWYQQTPGQAPRTLIYSTNTRSSGVPDRFSGSILGNKAALTITGAQADDESDYYCVLYMGSGIGVFGTGTKVTVLG
B4: scFv 11 (scFv)
scFv: MAQVQLVQSGAEVKKPGASVKVSCKASGYTFSGYSTHWLRQVPGQGLEWIGWDNPSSGDTTYAENFRGRVTLTRDTSITTDYLEVRGLRSDDTAVYYCARGGDDYSFDHWGQGTLVTVSSGGGGSGGGGSGGGGSSSELTQDPAVSVALGQTVRITCRGDSLRSYYASWYQQKPGQAPVLVIYGENNRPSGIPDRFSGSSSGDTASLTITGAQAEDEADYYCNSRDSSDHLLLFGGGTKLTVLGQPKATPSAAAEQKLISEEDL
B5: scFv 15 (scFv)
scFv: MAQVQLVQSGAEVKKPGASVKVSCKASGYTFSGYSTHWLRQVPGQGLEWIGWDNPSSGDTTYAENFRGRVTLTRDTSITTDYLEVRGLRSDDTAVYYCARGGDDYSFDHWGQGTLVTVSSGGGGSGGGGSGGGGSQSALTQPASVSGSPGQSITISCTGTNSDVGIYNLVSWYQQHPGKAPKLMIYDVSNRPSGVSSRFSGSNSGNTATLTISGLQAEDEADYYCSAHAGDNTQFGGGTKLTVLSQPKAAPSAAAEQKLISEEDL
B6: scFv 73 (scFv)
scFv: MAQVQLVQSGAEVKKPGASVKVSCKASGYTFSGYSTHWLRQVPGQGLEWIGWDNPSSGDTTYAENFRGRVTLTRDTSITTDYLEVRGLRSDDTAVYYCARGGDDYSFDHWGQGTLVTVSSGGGGSGGGGSGGGGSSYELTQPPSASGTPGQRVTISCSGSSSNIGSNTVNWYQQLPGTAPKLLIYSNNQRPSGVPDRFSGSKSGTSASLAISGLQSEDEADYYCAAWDARLTGPLFGGGTKLSVLRQPKAAPSAAAEQKLISEEDL
B7: scFv 71 (scFv)
scFv: B6 scFv with P149T, F198L
B8: scFv 84 (scFv)
scFv: MAQVQLVQSGAEVKKPGASVKVSCKASGYTFSGYSTHWLRQVPGQGLEWIGWDNPSSGDTTYAENFRGRVTLTRDTSITTDYLEVRGLRSDDTAVYYCARGGDDYSFDHWGQGTLVTVSSGGGGSGGGGSGGGGSQSVLTQPPSVSVAPGKTARIPCGGNNSGTKSVHWYQQKPGQAPVLVIYDDRVRPSGIPERFSGSNSGDTATLTISRVAAGDEADYYCQVSDGSGDPPTWVFGGGTRLTVLGQPKAAPSAAAEQKLISEEDL

Tests used:
[1] = molecular target: Recombinant WNV-E protein ectodomain (West Nile virus) (UniProt Q9Q6P4); assay: ELISA on coated rWNV-E, anti-His6-HRP
[2] = molecular target: Recombinant WNV-E protein ectodomain (West Nile virus) (UniProt Q9Q6P4); assay: ELISA; plate coated with rWNV-E (1 ug/ml), purified His6-tagged scFv, anti-His6-HRP, OD450
[3] = molecular target: WNV E protein DI/DII displayed on yeast (Saccharomyces cerevisiae; West Nile virus) (UniProt Q9Q6P4); assay: flow cytometry on yeast displaying WNV E DI/DII (pYD1); % positive cells
[4] = molecular target: WNV E protein ectodomain displayed on yeast (Saccharomyces cerevisiae; West Nile virus) (UniProt Q9Q6P4); assay: flow cytometry on yeast displaying the WNV E ectodomain (pYD1); % positive cells

Binder | binding [1] | other results
B1 | binds | binding [2]: binds
B2 | binds | binding [2]: binds
B3 |  | binding [3]: binds; binding [4]: binds
B4 | binds | 
B5 | binds | 
B6 | binds | 
B7 | binds | 
B8 | binds | 
